# From PubChem BioAssay AID493014 (National Center for Advancing Translational Sciences (NCATS), 2011)
# In all, about 340,000 compounds went through this assay and about 170 (0.05%) were called active. This list was built around the results that the source calls inconclusive (neither active nor inactive); the mix of calls is not that of the screen. Calls come from the whole dose curve; as a rule, active = well fitted inhibition curve with a large enough effect in the signal ratio, with a control signal flat (not every such curve was filed as active); inconclusive = small, poorly fitted or top-dose-only effect, or effect the other way, or a change in a side signal; inactive = flat fitted curve, though single readings scatter; the % refers to the signal ratio. Potencies beside an inconclusive call are fits to weak or partial responses and may not hold up.
# Experiment: qHTS Assay to Find Inhibitors of Chronic Active B-Cell Receptor Signaling;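 for activity change, negative = inhibition: plate controls were basal doxycycline-induced cells for no effect and cells given 10 µM MG132 for full effect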
# Settings: ABC-DLBCL IkBa-CBG/CBR reporter, luminescence ratio (green luciferase fused to IkBa over red control in TMD8 lymphoma cells), 4 h; activity change, negative = inhibition: at 46.1 µM (top of the series)
# Outline: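 TMD8 ABC-DLBCL cells carrying doxycycline-inducible green luciferase fused to IkappaBalpha plus unfused red luciferase were exposed to compounds (up to 46 uM) for 4 hrs at 37C. Activity came from the overlap-corrected green/red luminescence ratio.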
# Potency is the fitted concentration of half-maximal effect.
SMILES,"activity change, negative = inhibition",Potency
Cc1nn(Cc2ccc(Cl)cc2)c(C)c1NC(=O)c1noc2c1CCCCC2,inconclusive: -11.7%,–
O=C(CSc1nncs1)NCc1ccc(F)cc1,inactive,–
Cc1ccc(Cl)cc1N1CCN(C(=O)c2cc3c(=O)[nH]c4ccccc4c3n2C)CC1,inactive,–
Cc1cccc(NC(=O)COc2coc(CN3CCc4ccccc4C3)cc2=O)c1,–,"inconclusive: 29.1 µM [falling, single point]"
CN1c2ccccc2C(C)(C)C12CC(c1ccc(S(=O)(=O)N3CCCCC3)cc1)=NO2 (configuration not stated),inactive,–
CCn1c2ccccc2c2cc(CN3CCN(Cc4cc(OC)ccc4O)CC3)ccc21,inconclusive: -14.6%,–
O=C(Nc1ccc(N2CCOCC2)cc1)c1cccc(S(=O)(=O)N2CCCC2)c1,–,"inconclusive: 5.17 µM [falling, partial curve, poor fit]"
O=c1[nH][nH]c(-c2ccccc2O)c1C(C[N+](=O)[O-])c1ccc(Br)cc1 (configuration not stated),–,"inconclusive: 23.1 µM [falling, partial curve]"
O=C(NC1CCCCC1)C1CC(O)CN1C(=O)OCc1ccccc1 (configuration not stated),inconclusive: 3.16%,–
CCOc1ccc(-n2c(N)c(-c3nc4ccccc4n3C)c3nc4ccccc4nc32)cc1,–,"inconclusive: 16.4 µM [falling, partial curve]"
CC(NC(=O)Nc1ccc(Cl)c(Cl)c1)C(c1ccccc1)N1CCOCC1 (configuration not stated),inactive,–
Cc1sc(NC(=O)Cn2[nH]c(=O)c3ccccc3c2=O)nc1-c1ccccc1,inconclusive: 6.52%,–
C=CCOC(=O)/C(=C/c1cccnc1)NC(=O)c1ccccc1,inconclusive: -1.21%,–
O=C(O)CCCC(=O)OCCc1cc2ccccc2c(=O)o1,–,"inconclusive: 23.1 µM [falling, partial curve]"
CCOC(=O)c1c(C)oc2ccc(N(C(=O)c3ccncc3)S(=O)(=O)c3ccc(Br)cc3)cc12,–,"inconclusive: 12.6 µM [rising, single point]"
O=C(CCl)Nc1cccc(S(=O)(=O)NC2=NCCC2)c1,–,"inconclusive: 10 µM [falling, partial curve, poor fit]"
COc1cccc(C2CC(C(F)(F)F)n3nc(C(=O)Nc4c(C)n(C)n(-c5ccccc5)c4=O)cc3N2)c1 (configuration not stated),inactive,–
N#CC1=C(N)NC(=S)C(C(N)=O)C1c1ccc(Cl)cc1Cl (configuration not stated),inconclusive: 5.52%,–
CC(C)C(=O)Nc1nnc(SCC(=O)Nc2ccc3c(c2)OCCO3)s1,–,"inconclusive: 14.1 µM [falling, partial curve, poor fit]"
CCOC(=O)c1sc(NC(=O)CSc2n[nH]c(-c3ccccc3)n2)c(C#N)c1C,inconclusive: -0.14%,–
Nn1cnnc1N/N=C/c1ccccc1C(F)(F)F,inconclusive: -0.954%,–

SMILES,"activity change, negative = inhibition",Potency
Clc1ccc(-c2nnc(-c3ccco3)o2)cc1,inconclusive: 1.63%,–
Cc1ccc(C(=O)NCC(c2ccco2)N2CCc3ccccc3C2)cc1C (configuration not stated),inactive,–
COc1cccc(-c2cc(C(=O)N/N=C/c3ccco3)c3ccccc3n2)c1,inconclusive: 5.14%,–
Oc1cccc2ccc(/C=C/c3c(F)cccc3Cl)nc12,inconclusive: -17%,–
CCOC(=O)c1[nH]c(C)c(CN(CCc2ccccc2)S(C)(=O)=O)c1C,–,"inconclusive: 12.6 µM [falling, partial curve, poor fit]"
COc1ccc(-n2nnc3c(=O)n(CC(=O)N4CCCc5ccccc54)cnc32)cc1,inconclusive: -2.75%,–
COc1ccc(S(=O)(=O)N2CCOCC2)c(Cl)c1Cl,–,"inconclusive: 16.4 µM [falling, single point]"
O=C(NCCc1cn2ccsc2n1)c1cccs1,inconclusive: -7.92%,–
O=C(c1ccco1)N(CCC(c1ccccc1)c1ccco1)Cc1ccc(F)cc1 (configuration not stated),inconclusive: 17.3%,–
N#Cc1c(-c2cccs2)cc(-c2ccccn2)nc1N,inactive,–
CCOC(=O)C1CCCN(c2c(NCCN(C)Cc3ccccc3)c(=O)c2=O)C1 (configuration not stated),inconclusive: 7.38%,–
O=C(Nc1ccccc1)Nc1cc(Cl)cc(Cl)c1,inconclusive: 2.05%,–
CC1=CCn2c(=O)c3ccccc3c(=O)n2C1,inconclusive: -0.759%,–
COC1(OC)N=C(N)C2(C#N)C(c3ccc4c(c3)OCO4)C12C#N (configuration not stated),inconclusive: -0.0753%,–
C=CCn1c(SCC(C)=O)nc2scc(-c3ccco3)c2c1=O,inactive,–
COc1ccccc1OCCNC(=O)c1cccc(S(=O)(=O)NCc2ccccc2)c1,inconclusive: -2.29%,–
CCOc1nsc(OCC)n1,inconclusive: -9.97%,–
Cc1ccccc1-n1c(=O)n(CCc2ccccc2)c(=O)c2[nH]cnc21,–,"inconclusive: 0.1 µM [falling, full curve, poor fit]"
CNS(=O)(=O)c1ccc2c3c(cccc13)C(=O)N2C,–,"inconclusive: 20 µM [falling, partial curve, poor fit]"
COC(=O)/C=C/C1=CN(Cc2ccccc2)CCC1=O,inconclusive: -0.927%,–
COc1ccc(C)cc1-n1c(SCC(=O)NCC2CCCO2)nc2c([nH]c3ccccc32)c1=O (configuration not stated),inconclusive: 6.67%,–

SMILES,"activity change, negative = inhibition",Potency
Oc1c(N=Nc2ccccn2)ccc2ccccc12,–,"inconclusive: 35.5 µM [falling, single point]"
CNC(C)C#Cc1ccc2sc3cccc(OC)c3c(=O)c2c1 (configuration not stated),–,"inconclusive: 0.501 µM [rising, full curve, poor fit]"
CCC(=O)Nc1cccc(C2=NOC3(C2)C[C@@H](C(N)=O)N(C(=O)COc2ccc(Cl)cc2)C3)c1 (some centres not stated),inactive,–
O=C(Nc1nc(=S)ss1)c1ccc(Cl)cc1Cl,inconclusive: 5.09%,–
Cc1c(NC(=O)c2ccc([N+](=O)[O-])o2)cccc1-c1nc2ncccc2o1,–,"inconclusive: 25.1 µM [falling, single point]"
O=C(NC(NC(=S)Nc1ccc(Cl)cc1Cl)C(Cl)(Cl)Cl)c1cccc([N+](=O)[O-])c1 (configuration not stated),inconclusive: 10.1%,–
Oc1ccc(Nc2nc3ccccc3nc2Nc2ccc(O)cc2)cc1,–,"inconclusive: 9.2 µM [falling, partial curve, poor fit]"
CC(C)Cc1nc2oc3c(Cl)ncnc3c2c2c1CCCC2,inactive,–
Cc1csc(NC(=O)c2ccc(OCC3CCCO3)cc2)n1 (configuration not stated),inconclusive: 22.1%,–
CC(=O)N1SC(N)=NC1c1ccccc1 (configuration not stated),inconclusive: 1.97%,–
Cc1ccc(N)cc1O,inactive,–
CNC(=O)Nc1ccc(Cl)cc1,inconclusive: 13.4%,–
CCOC(=O)[C@@H]1[C@H]2COc3ccc(Br)cc3[C@@H]2N2C(=O)N(c3ccccc3)C(=O)[C@@]12C,inactive,–
CCOc1cc(C)c(S(=O)(=O)Nc2ccc3cn[nH]c3c2)cc1C,inconclusive: 5.61%,–
C[C@@H](C(=O)NCCc1ccccc1F)N1C(=O)N2CCc3c([nH]c4ccccc34)[C@@]2(C)C1=O,inconclusive: -0.621%,–
CS(=O)(=O)c1ccc(C(=O)Nc2ccc(N3CCOCC3)cc2)c(Cl)c1,inactive,–
CCCCCCCCS(=O)C1CS(=O)(=O)CC1O (configuration not stated),inconclusive: 8.52%,–
COC(=O)c1ccc(COc2ccccc2/C=C(\C#N)C(=O)Nc2ccccc2C)cc1,inactive,–
COc1ccc(-c2cn3nc(C)c(C)nc3n2)cc1OC,inconclusive: -1.24%,–
CC(=O)Nc1ccc(C(=O)NNC(=O)c2cc([N+](=O)[O-])cc([N+](=O)[O-])c2)cc1,–,"inconclusive: 0.0891 µM [falling, full curve, poor fit]"
O=C(CN1C(=O)C2CC=CCC2C1=O)OCc1cc(=O)n2cc(Br)ccc2n1 (configuration not stated),–,"inconclusive: 11.2 µM [rising, partial curve, poor fit]"

SMILES,"activity change, negative = inhibition",Potency
COc1ccc(-c2csc(Nc3cccc(C)n3)n2)cc1C,inconclusive: -11.4%,–
COc1ccc(C(NCC(=O)NC(C)c2ccc(Cl)cc2)c2ccccc2)cc1 (configuration not stated),inconclusive: -1.53%,–
Cc1cccc(NC(=O)c2ccc3c(c2)OCCO3)n1,inconclusive: -10.8%,–
CC(C)/C=C/CN1CCN(CCCc2ccccc2)C(CCO)C1 (configuration not stated),inactive,–
CCN(C(=O)CCc1ccccc1)C1CCCCC1,inactive,–
Cc1nc(Cl)cc(N/N=C/c2ccc(O)cc2O)n1,–,"inconclusive: 11.2 µM [falling, partial curve]"
CNC(CC(=O)c1ccc([N+](=O)[O-])cc1)C(Cl)(Cl)Cl (configuration not stated),inactive,–
CCN(CC)C(=O)Cn1ncc2c1-c1ccccc1OC2,inactive,–
NC(=O)NC(=O)COC(=O)CCCSc1nc2ccccc2s1,inconclusive: 57%,–
Cc1ccc(NC(=O)c2sc3ncnc(N4CCN(c5ccccn5)CC4)c3c2C)c(C)c1,inconclusive: 23.1%,–
Cc1cccc(N2C(=O)c3cccc4c(N)ccc(c34)C2=O)c1,inactive,–
C(=C\c1ccccc1)/CSc1nnc(-c2ccccc2)n1Cc1ccco1,–,"inconclusive: 22.4 µM [falling, single point]"
Cc1cccc(NC(=O)CCCN2C(=O)c3cccc4cccc(c34)C2=O)c1,inconclusive: 26.9%,–
COc1ccc2c(c1)C(=O)CC(c1ccc3c(c1)OCCO3)O2 (configuration not stated),inconclusive: 1.95%,–
Cc1cc(C)cc(NC(=S)NCCN(C2CCCCC2)C2CCCC2)c1,inconclusive: 1.55%,–
Cc1cccc(N=C2NC(=O)/C(=C/c3cn(C)c4ccccc34)S2)c1,inconclusive: -0.96%,–
CC1(c2ccccc2)NC(=O)N(CC(=O)Nc2cc3c(cc2Br)OCCO3)C1=O (configuration not stated),inconclusive: -10.3%,–
CC(=O)n1c(C=Nc2ccc(Cl)cc2)c(O)c2ccccc21,–,"inconclusive: 12.6 µM [falling, partial curve]"
C=CCN1C(=O)/C(=C/c2ccsc2)SC1=S,inactive,–

# Laid out differently: results already given.
SMILES | activity change, negative = inhibition | Potency
C[C@@H](C(=O)NCCc1ccccc1F)N1C(=O)N2CCc3c([nH]c4ccccc34)[C@@]2(C)C1=O | inconclusive: -0.621% | –
CS(=O)(=O)c1ccc(C(=O)Nc2ccc(N3CCOCC3)cc2)c(Cl)c1 | inactive | –
CCCCCCCCS(=O)C1CS(=O)(=O)CC1O (configuration not stated) | inconclusive: 8.52% | –
COC(=O)c1ccc(COc2ccccc2/C=C(\C#N)C(=O)Nc2ccccc2C)cc1 | inactive | –
COc1ccc(-c2cn3nc(C)c(C)nc3n2)cc1OC | inconclusive: -1.24% | –
